Reference: article PMC6937325 (Scientific Reports, 2019)

Assay: peptide synthesis
Details: whole synthesis

Substance | isolated yield [%] | final HPLC purity (220 nm) [%] | final HPLC purity (280 nm) [%]
SFLLRN-CONH2 | 21 | 100 | 
SFLLR-CONH2 | 39 | 98.41 | 
YPFF-CONH2 | 29 | 100 | 
YPWF-CONH2 | 26 |  | 97.5
